The other results are listed elsewhere or left out.

The chains behind the UniProt entries cited, without tags or fusion partners. Where a name states a change or a piece, a line headed by the entry shows the natural chain unless it says otherwise.
UniProt Q2M2I8: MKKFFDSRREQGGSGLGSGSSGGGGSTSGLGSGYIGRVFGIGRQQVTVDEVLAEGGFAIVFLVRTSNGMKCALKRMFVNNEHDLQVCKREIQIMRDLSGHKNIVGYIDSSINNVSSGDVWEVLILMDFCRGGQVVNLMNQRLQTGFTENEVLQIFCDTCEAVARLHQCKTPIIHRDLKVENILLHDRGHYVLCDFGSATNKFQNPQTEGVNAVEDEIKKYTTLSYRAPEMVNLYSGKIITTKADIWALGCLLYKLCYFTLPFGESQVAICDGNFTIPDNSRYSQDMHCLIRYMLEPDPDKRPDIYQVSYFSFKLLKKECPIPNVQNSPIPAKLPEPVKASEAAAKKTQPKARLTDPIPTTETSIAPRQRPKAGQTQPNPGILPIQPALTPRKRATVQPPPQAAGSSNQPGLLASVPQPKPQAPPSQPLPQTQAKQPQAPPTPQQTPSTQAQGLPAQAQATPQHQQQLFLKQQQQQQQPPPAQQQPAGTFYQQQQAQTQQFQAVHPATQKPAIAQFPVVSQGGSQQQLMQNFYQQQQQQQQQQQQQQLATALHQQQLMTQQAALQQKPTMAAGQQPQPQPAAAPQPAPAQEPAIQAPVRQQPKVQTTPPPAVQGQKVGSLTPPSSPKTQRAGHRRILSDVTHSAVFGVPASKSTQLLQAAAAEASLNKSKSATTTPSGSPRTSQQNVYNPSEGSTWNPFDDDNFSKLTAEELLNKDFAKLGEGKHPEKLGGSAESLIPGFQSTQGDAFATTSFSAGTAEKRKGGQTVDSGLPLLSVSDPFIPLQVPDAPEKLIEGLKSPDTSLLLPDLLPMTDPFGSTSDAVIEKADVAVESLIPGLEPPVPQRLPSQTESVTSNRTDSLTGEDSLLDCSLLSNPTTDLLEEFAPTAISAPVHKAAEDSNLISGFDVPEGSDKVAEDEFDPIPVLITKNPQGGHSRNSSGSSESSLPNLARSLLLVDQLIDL
UniProt P24666: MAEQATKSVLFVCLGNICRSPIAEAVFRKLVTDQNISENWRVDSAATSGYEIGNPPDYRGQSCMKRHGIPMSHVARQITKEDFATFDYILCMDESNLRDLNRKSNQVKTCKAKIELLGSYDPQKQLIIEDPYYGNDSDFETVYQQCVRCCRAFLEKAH
UniProt Q9Y312: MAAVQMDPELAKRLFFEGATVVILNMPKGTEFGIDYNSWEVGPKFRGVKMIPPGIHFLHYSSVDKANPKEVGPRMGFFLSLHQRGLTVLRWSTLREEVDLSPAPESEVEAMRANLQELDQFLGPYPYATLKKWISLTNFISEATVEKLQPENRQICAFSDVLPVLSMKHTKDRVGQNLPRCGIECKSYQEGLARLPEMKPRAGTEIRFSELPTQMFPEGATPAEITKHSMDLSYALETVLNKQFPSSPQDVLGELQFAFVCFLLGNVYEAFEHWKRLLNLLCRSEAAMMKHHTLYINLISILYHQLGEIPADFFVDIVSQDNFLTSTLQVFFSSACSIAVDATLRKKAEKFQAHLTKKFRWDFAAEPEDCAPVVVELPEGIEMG
UniProt O60488: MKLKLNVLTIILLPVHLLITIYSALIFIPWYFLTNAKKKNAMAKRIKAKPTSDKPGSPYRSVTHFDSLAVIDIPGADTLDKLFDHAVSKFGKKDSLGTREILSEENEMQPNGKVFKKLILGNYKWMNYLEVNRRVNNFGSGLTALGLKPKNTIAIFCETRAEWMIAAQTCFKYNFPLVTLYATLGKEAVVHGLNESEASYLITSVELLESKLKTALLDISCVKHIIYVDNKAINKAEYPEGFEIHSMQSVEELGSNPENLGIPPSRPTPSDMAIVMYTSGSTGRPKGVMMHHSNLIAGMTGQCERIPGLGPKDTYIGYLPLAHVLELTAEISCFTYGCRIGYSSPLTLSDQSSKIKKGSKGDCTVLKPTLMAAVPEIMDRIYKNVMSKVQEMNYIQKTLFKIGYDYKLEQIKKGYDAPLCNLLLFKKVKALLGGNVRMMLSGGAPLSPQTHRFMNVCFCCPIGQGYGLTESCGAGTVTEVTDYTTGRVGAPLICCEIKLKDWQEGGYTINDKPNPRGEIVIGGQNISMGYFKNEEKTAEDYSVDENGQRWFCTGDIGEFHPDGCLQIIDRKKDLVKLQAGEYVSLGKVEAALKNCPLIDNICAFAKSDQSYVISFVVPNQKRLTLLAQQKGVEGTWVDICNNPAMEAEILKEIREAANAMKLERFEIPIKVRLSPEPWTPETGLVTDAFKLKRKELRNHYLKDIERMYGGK
UniProt Q96GS6: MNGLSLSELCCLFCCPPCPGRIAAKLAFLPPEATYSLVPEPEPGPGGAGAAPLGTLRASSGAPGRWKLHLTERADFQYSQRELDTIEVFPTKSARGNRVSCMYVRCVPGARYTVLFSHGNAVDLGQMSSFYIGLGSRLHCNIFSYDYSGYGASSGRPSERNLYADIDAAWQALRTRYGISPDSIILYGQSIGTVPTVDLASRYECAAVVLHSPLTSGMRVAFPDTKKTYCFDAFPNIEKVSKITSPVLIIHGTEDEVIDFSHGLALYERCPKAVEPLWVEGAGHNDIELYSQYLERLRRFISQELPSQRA
UniProt P42025, whole entry, looked up: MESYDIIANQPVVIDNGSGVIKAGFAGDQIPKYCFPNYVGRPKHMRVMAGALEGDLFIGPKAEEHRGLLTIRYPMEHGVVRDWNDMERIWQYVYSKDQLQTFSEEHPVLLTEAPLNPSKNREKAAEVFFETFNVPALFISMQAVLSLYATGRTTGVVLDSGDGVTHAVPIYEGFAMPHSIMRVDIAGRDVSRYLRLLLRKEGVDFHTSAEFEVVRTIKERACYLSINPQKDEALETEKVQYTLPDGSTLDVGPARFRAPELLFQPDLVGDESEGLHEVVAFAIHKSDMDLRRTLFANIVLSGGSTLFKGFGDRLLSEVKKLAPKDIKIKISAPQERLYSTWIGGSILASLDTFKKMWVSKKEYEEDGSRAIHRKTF
UniProt O95573: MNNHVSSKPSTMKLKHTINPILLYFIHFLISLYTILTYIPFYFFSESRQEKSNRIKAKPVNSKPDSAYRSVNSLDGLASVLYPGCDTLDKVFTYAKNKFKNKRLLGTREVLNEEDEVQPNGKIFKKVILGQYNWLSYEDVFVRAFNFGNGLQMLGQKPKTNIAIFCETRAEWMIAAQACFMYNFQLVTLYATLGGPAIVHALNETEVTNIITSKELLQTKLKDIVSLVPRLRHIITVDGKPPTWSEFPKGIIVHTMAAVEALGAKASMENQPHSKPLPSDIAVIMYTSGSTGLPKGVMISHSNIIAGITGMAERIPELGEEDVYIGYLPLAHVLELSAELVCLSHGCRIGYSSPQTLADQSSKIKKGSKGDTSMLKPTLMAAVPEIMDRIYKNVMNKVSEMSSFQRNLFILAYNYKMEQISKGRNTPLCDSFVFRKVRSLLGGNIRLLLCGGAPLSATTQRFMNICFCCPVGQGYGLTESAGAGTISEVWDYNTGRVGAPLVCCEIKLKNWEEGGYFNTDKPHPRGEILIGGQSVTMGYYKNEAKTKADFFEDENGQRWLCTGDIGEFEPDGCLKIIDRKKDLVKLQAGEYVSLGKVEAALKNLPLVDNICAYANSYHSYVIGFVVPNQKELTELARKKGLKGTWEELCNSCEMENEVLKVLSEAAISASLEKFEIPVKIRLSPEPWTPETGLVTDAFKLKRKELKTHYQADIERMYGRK
UniProt Q6PD74: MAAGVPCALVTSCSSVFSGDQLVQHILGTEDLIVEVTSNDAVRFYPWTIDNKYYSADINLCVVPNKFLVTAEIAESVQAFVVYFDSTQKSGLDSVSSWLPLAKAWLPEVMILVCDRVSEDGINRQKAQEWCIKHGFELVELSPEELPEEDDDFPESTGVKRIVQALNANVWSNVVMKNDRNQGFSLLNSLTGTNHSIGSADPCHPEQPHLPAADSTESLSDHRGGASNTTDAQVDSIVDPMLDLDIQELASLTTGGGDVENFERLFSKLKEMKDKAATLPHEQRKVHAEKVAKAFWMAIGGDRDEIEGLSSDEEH
UniProt Q99758: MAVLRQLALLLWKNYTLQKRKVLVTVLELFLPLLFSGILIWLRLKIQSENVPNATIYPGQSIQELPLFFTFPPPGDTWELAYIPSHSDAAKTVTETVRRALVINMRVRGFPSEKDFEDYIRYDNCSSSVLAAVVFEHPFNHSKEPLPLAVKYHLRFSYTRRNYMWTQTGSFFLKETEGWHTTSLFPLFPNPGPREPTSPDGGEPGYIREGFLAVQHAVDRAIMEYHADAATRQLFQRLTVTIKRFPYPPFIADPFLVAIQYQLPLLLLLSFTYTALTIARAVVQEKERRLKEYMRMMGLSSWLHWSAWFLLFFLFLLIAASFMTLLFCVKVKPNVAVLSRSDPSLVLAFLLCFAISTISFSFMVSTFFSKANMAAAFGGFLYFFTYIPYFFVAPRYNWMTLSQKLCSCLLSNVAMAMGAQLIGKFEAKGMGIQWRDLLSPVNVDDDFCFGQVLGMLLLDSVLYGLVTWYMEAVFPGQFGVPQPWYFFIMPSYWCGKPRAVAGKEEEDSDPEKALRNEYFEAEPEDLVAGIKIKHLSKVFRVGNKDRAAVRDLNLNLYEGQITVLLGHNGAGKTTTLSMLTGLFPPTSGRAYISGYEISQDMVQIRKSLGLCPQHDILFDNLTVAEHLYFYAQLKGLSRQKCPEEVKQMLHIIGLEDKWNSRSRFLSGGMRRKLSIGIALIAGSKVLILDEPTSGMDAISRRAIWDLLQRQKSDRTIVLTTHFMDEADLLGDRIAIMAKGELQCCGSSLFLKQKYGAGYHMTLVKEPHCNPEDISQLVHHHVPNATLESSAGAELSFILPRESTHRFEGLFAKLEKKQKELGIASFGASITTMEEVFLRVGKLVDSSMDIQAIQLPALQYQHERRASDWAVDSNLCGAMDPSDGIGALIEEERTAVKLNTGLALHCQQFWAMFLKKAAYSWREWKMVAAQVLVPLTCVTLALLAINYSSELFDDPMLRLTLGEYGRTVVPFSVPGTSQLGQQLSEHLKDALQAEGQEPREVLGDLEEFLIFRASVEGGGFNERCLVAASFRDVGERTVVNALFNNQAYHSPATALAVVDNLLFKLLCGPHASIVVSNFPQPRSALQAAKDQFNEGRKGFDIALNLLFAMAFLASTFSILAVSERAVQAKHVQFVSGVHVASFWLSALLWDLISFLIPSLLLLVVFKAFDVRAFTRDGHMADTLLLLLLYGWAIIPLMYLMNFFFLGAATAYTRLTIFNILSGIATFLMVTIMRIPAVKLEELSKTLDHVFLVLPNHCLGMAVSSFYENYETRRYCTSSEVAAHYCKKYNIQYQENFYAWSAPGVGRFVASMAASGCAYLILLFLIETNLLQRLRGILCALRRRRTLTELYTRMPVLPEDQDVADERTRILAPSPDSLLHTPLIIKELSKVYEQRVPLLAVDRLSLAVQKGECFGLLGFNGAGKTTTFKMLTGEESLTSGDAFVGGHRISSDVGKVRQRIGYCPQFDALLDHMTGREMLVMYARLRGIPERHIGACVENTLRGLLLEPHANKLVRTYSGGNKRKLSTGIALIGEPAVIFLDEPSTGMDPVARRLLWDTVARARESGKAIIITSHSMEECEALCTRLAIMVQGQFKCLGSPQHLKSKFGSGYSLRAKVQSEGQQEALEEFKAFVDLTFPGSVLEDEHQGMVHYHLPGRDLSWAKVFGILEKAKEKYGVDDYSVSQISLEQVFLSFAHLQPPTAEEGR
UniProt Q9BR61: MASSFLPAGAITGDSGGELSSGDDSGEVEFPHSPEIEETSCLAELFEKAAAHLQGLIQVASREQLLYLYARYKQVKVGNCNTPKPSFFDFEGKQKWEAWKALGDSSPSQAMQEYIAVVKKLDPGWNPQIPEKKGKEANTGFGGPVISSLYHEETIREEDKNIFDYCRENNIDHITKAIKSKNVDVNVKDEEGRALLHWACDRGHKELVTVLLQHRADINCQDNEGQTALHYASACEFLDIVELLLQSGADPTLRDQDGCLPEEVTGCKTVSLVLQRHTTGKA
UniProt P49748: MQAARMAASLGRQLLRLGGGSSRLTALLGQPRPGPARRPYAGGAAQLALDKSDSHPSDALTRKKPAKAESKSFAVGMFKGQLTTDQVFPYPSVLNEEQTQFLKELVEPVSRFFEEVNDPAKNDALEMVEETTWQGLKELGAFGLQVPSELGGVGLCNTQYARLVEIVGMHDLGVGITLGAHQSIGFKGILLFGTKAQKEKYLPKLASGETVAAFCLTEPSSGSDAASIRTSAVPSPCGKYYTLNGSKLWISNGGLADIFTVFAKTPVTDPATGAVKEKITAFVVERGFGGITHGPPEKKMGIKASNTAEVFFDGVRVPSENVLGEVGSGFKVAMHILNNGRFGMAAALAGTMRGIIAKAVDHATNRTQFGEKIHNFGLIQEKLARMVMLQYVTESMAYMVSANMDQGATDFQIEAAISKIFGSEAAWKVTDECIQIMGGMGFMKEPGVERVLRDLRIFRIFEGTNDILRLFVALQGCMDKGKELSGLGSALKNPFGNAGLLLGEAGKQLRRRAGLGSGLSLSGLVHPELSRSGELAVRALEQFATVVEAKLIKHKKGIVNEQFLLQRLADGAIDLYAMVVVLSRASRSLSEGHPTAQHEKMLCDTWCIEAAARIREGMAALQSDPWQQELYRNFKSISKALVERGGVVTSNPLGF

Compound in this assay: CNc1nc(-c2ccc3c(N)n[nH]c3c2)cc(N2C[C@@H](C(=O)NC3CCCCC3)CC[C@H]2C)n1
Description: log2 fold change, soluble protein after heating vs DMSO (PISA); higher = thermal stabilisation; K562 cells, 10 uM, 30 min; active = over 0.2 and 3.5 SD of the protein, either way, in both replicates (recomputed). In outline: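 Thermal stability values are relative to control samples and come from duplicates. They are expressed as log2 fold changes. For measurement, K562 cells (2×10^6 cells/mL) received 10 μM compound for 30 min, and aliquots were heated for 3 min over 48°C-58°C, pooled, and extracted at 4°C in PBS with 0.5% NP-40. Soluble protein, the supernatant after 21,000xg for 90 min, was quantified by TMTpro 16plex LC-MS/MS with equalised channel sums.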
With AAK1 (UniProt Q2M2I8), the log2 fold change was inactive: 0.252. With ADAMTS5 (UniProt Q9UNA0), the log2 fold change was inactive: -0.048. The result for ABHD13 (UniProt Q7L211) reads inactive: 0.028; that for ACSL1 (UniProt P33121), inactive: -0.025. The result for ABHD16A (UniProt O95870) reads inactive: 0.162. The result for ACP1 isoform 2 (UniProt P24666) reads inactive: 0.059; that for AAR2 (UniProt Q9Y312), inactive: -0.069. ACSM3 (UniProt Q53FZ2): the log2 fold change is inactive: -0.09.

Take ABCC10 (UniProt Q5T3U5): the log2 fold change was inactive: -0.073.

As to AAMP (UniProt Q13685), the log2 fold change was inactive: -0.014. The result for ACSL4 (UniProt O60488) reads inactive: 0.043. On to ABHD17A isoform 2 (UniProt Q96GS6), for which the log2 fold change is inactive: -0.052. For the target ACAP2 (UniProt Q15057), the log2 fold change is inactive: -0.04.

ACTR1B (UniProt P42025): the log2 fold change is inactive: -0.012. The result for ABHD14A (UniProt Q9BUJ0) reads inactive: -0.108; that for ACP1 (UniProt P24666), inactive: 0.123; that for ADAD1 (UniProt Q96M93), inactive: -0.102. The result for ABCC5 (UniProt O15440) reads inactive: -0.003; that for ACSL3 (UniProt O95573), inactive: 0.041. Turning to ADAMTS13 (UniProt Q76LX8), the log2 fold change was inactive: 0.269. The result for ADAM15 (UniProt Q13444) reads inactive: 0.073. The result for AAGAB (UniProt Q6PD74) reads inactive: -0.084. The result for ACSL6 isoform 1 (UniProt Q9UKU0) reads inactive: -0.007; that for ACTBL2 (UniProt Q562R1), inactive: 0.035.

Turning to ABCB6 (UniProt Q9NP58), the log2 fold change is inactive: 0.003. The result for ABCA3 (UniProt Q99758) reads inactive: 0.011. The result for AASDH (UniProt Q4L235) reads inactive: -0.036; that for ACO2 (UniProt Q99798), inactive: 0.021; that for ACADM isoform 2 (UniProt P11310), inactive: 0.083. The result for ACIN1 (UniProt Q9UKV3) reads inactive: -0.054; that for AAK1, A0A096LP25, inactive: 0.244; that for ACSF3 (UniProt Q4G176), inactive: -0.016. AARS2 (UniProt Q5JTZ9): the log2 fold change was inactive: 0.004. The result for ACBD6 (UniProt Q9BR61) reads inactive: 0.006; that for ACADVL isoform 3 (UniProt P49748), inactive: 0.008; that for ACSL5 isoform 3 (UniProt Q9ULC5), inactive: -0.132. For the target AARSD1 isoform 3 (UniProt Q9BTE6), the log2 fold change is inactive: -0.037. The result for ABITRAM (UniProt Q9NX38) reads inactive: -0.243.
